Experimental data: patent publication US20120156169A1
These are yes or no findings as the source states them, for the method shown. Some binding calls cover weakened binding; strength is not graded here.

Chains of the proteins cited; added tags and fusions are not shown. Residues count along the entry.
UniProt P22607, residues 23-806: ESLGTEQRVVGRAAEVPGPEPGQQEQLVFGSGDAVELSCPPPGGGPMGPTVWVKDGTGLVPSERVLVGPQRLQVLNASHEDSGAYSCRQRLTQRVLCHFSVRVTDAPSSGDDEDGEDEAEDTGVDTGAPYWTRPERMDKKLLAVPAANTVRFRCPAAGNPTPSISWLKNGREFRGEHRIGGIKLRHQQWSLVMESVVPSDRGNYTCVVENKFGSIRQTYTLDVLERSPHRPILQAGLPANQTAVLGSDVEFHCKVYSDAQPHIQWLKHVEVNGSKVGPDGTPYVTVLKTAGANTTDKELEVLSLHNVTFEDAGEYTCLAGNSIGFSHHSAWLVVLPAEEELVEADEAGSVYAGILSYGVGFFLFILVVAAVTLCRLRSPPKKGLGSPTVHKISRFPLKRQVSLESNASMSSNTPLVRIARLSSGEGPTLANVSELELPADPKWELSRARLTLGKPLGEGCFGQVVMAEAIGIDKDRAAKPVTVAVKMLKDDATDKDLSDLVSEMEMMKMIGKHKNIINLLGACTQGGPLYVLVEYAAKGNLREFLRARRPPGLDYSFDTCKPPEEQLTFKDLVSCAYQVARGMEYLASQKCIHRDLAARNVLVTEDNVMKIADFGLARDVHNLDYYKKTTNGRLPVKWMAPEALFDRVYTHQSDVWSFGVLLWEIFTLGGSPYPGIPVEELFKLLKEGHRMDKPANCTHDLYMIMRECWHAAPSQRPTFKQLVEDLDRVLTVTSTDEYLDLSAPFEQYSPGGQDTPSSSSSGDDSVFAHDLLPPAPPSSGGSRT

Target: fibroblast growth factor receptor (FGFR-3) (human) (UniProt P22607)
Experiment: covalent cross-linking (BS3/DSS) on T24 and RT112 cells after FGF-1 (50 ng/ml), anti-FGFR-3 immunoprecipitation and immunoblot; dimer ~250 kDa against monomer ~120 kDa

binding: binds
Substance: fibroblast growth factor receptor (FGFR-3) (from UniProt P22607 23-806)
